Measured data: PubChem BioAssay AID1259308 (NCATS, 2017)
This is one part, drawn at random, of about 59,000 deposited reagents. Over the whole deposit, about 1,510 (2.6%) were called active. 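Calls use total luciferase alone and ignore viability, so some active siRNAs may act by altering cell number.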 A number with no mark means an inactive call. Reagents against one gene are numbered here.

Purpose: 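Candidate targets for better recombinant protein yield in mammalian cells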 (primary screen)
System: human HEK293 embryonic kidney cells stably expressing firefly luciferase (HEK-CMV-Luc2-Hygro)
Reagents: single siRNA against human genes, 0.8 pmol siRNA per well
Time to read-out: 72 h
Measured: 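Luciferase light (ONE-Glo) measured on one replicate plate set and viability (CellTiter-Glo) on the other, scaled to a negative control siRNA, with robust z-scores and luciferase per cell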
Direction: total luciferase, z-score and total luciferase, % of control: higher = more reporter protein produced; luciferase per cell, z-score: higher = more reporter output per viable cell; viable cells, % of control: higher = more viable cells
Active means: 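An siRNA counts as active if its total luciferase robust z-score exceeds 3; genes with two or more such siRNAs out of three were retested with fresh siRNAs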
Calls: active = raised luciferase; inactive = no rise

no.	gene symbol	reagent no.	total luciferase, z-score	total luciferase, % of control	luciferase per cell, z-score	viable cells, % of control
1	POLR2G	1	-2.47	32.8	-1.93	61
2	POLR2G	2	-2.93	23.7	-3.06	59.2
3	POLR2G	3	-2.99	22.4	-4.05	72.7
4	RNASEL	1	-1.03	61.4	-1.17	93.3
5	RNASEL	2	-0.725	67.5	-0.627	88.9
6	RNASEL	3	-1.11	59.8	-1.43	97.2
7	ZBED1	1	0.721	96.2	0.554	92.9
8	ZBED1	2	-1.68	48.5	-1.32	76.8
9	ZBED1	3	0.315	88.1	0.693	82.1
10	OSGEPL1	1	0.946	101	0.566	97
11	OSGEPL1	2	-1.96	42.9	-2.26	86.9
12	OSGEPL1	3	0.588	93.6	-0.171	109
13	GLIPR1	1	0.249	86.8	-0.186	102
14	GLIPR1	2	-1.34	55.3	-1.4	89.3
15	GLIPR1	3	1.19	106	1.32	83.3

Sorted by “total luciferase, % of control” (high to low): 2 of the entries above.
gene symbol	reagent no.	total luciferase, z-score	total luciferase, % of control	luciferase per cell, z-score	viable cells, % of control
RNASEL	2	-0.725	67.5	-0.627	88.9
RNASEL	3	-1.11	59.8	-1.43	97.2

The list goes on:
no.	gene symbol	reagent no.	total luciferase, z-score	total luciferase, % of control	luciferase per cell, z-score	viable cells, % of control
16	IL17F	1	-1.45	53	-1.27	82.8
17	IL17F	2	0.754	96.9	1.88	66
18	IL17F	3	0.859	99	0.467	97.8
19	SLAMF7	1	4.89 (active)	179	2.85	94.5
20	SLAMF7	2	0.933	100	1.04	85.5
21	SLAMF7	3	0.0418	82.7	0.562	79.7
22	N4BP2L2	1	-0.381	74.3	-0.469	93.9
23	N4BP2L2	2	0.211	86.1	0.711	79.8
24	N4BP2L2	3	1.15	105	0.605	99.8
